PubChem BioAssay AID1259425, University of Nebraska Medical Center, 2018
The whole screen tested about 14,000 reagents; shown is a random part of them. A reagent listed more than once was tested more than once; the source does not tell the runs apart. The record does not give: the time to read-out.

Aim: 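Compare each knockdown with KSR1 silencing using changes in marker transcripts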 (primary screen)
Cells: HCT116 human colon cancer cells
Knock-down reagent: siRNA pool against human genes, 50 nM siRNA
Measurement: 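mRNA of six signature genes measured together by branched-DNA assay after 50 nM siRNA pool, blank removed, divided by geometric mean of two housekeeping genes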
Direction: BNIP3L mRNA: higher = more BNIP3L transcript after knockdown; NDRG1 mRNA: higher = more NDRG1 transcript after knockdown; BNIP3 mRNA: higher = more BNIP3 transcript after knockdown; ALDOC mRNA: higher = more ALDOC transcript after knockdown; ACSL5 mRNA: higher = more ACSL5 transcript after knockdown

Target gene | BNIP3L mRNA, set 1 | NDRG1 mRNA, set 1 | BNIP3 mRNA, set 1 | ALDOC mRNA, set 1 | ACSL5 mRNA, set 1
FKBP1B | 0.085 | 0.239 | 0.375 | 0.0471 | 0.171
RUNX1-IT1 | 0.193 | 0.416 | 0.421 | 0.142 | 0.148
MZF1 | 0.107 | 0.153 | 0.276 | 0.0153 | 0.219
CDC42EP3 | 0.144 | 0.247 | 0.35 | 0.0247 | 0.293
ARL4A | 0.119 | 0.072 | 0.296 | 0.0414 | 0.081
CRNN | 0.16 | 0.17 | 0.424 | 0.0767 | 0.0835
SCAF4 | 0.105 | 0.0838 | 0.281 | 0.0439 | 0.294
ITPKA | 0.183 | 0.557 | 0.245 | 0.00623 | 0.336
PGF | 0.116 | 0.171 | 0.266 | 0.049 | 0.122
WT1-AS | 0.2 | 0.248 | 0.448 | 0.0428 | 0.185
PER3 | 0.197 | 0.2 | 0.208 | 0.0432 | 0.384
PHOX2B | 0.14 | 0.177 | 0.321 | 0.0181 | 0.213
STAT2 | 0.133 | 0.171 | 0.19 | 0.0356 | 0.163
PPP1R14B | 0.0879 | 0.206 | 0.249 | 0.0217 | 0.181
CIP2A | 0.0694 | 0.553 | 0.2 | 0.0129 | 0.346
KCNJ16 | 0.0601 | 0.162 | 0.243 | 0.0212 | 0.0756
PGAP4 | 0.109 | 0.216 | 0.222 | 0.0199 | 0.216
GCKR | 0.124 | 0.255 | 0.307 | 0.00896 | 0.217
UGT2B10 | 0.133 | 0.2 | 0.178 | 0.0277 | 0.129
PPFIBP1 | 0.12 | 0.214 | 0.311 | 0.0373 | 0.242
CMTR1 | 0.109 | 0.171 | 0.31 | 0.0294 | 0.211
ANKRD1 | 0.0822 | 0.26 | 0.317 | 0.0339 | 0.168
EFNB1 | 0.0632 | 0.226 | 0.25 | 0.0155 | 0.154
NBR1 | 0.109 | 0.0658 | 0.351 | 0.0148 | 0.148
SLC2A4 | 0.0953 | 0.15 | 0.321 | 0.0217 | 0.109
WDR48 | 0.085 | 0.118 | 0.298 | 0.0292 | 0.204
ANP32CP | 0.115 | 0.0746 | 0.165 | 0.0223 | 0.0993
HMGCS2 | 0.0499 | 0.429 | 0.172 | 0.00798 | 0.268
TNNT1 | 0.0653 | 0.274 | 0.278 | 0.0341 | 0.167
ZNF84 | 0.121 | 0.112 | 0.243 | 0.011 | 0.171
ICE2 | 0.0912 | 0.102 | 0.281 | 0.0152 | 0.0932
RCVRN | 0.104 | 0.0813 | 0.364 | 0.0462 | 0.11
JMJD6 | 0.114 | 0.152 | 0.268 | 0.0202 | 0.173
NMD3 | 0.0706 | 0.183 | 0.338 | 0.0243 | 0.13
ALKBH1 | 0.141 | 0.11 | 0.371 | 0.0477 | 0.141
IST1 | 0.0624 | 0.169 | 0.249 | 0.0448 | 0.211
CCL2 | 0.0597 | 0.627 | 0.483 | 0.0137 | 0.455
CCL2 | 0.135 | 0.583 | 0.325 | 0.0352 | 0.288
CACNG8 | 0.196 | 0.161 | 0.445 | 0.026 | 0.213
USP32P2 | 0.0605 | 0.0958 | 0.212 | 0.0235 | 0.13
CFP | 0.0663 | 0.0994 | 0.224 | 0.0244 | 0.154
TMEM121B | 0.0928 | 0.448 | 0.353 | 0.0385 | 0.128
ADCK2 | 0.069 | 0.161 | 0.266 | 0.0293 | 0.248
BOLL | 0.0745 | 0.637 | 0.19 | 0.0235 | 0.114
ANXA8L1 | 0.116 | 0.178 | 0.261 | 0.0361 | 0.133
TTC19 | 0.054 | 0.247 | 0.305 | 0.0202 | 0.367
GGT3P | 0.182 | 0.707 | 0.311 | 0.02 | 0.337
RAB9A | 0.111 | 0.189 | 0.231 | 0.0426 | 0.335
LPO | 0.194 | 0.089 | 0.235 | 0.0142 | 0.159
PDSS2 | 0.0775 | 0.121 | 0.211 | 0.0154 | 0.135

Entries above whose target name begins with T or t (3):
Target gene | BNIP3L mRNA, set 1 | NDRG1 mRNA, set 1 | BNIP3 mRNA, set 1 | ALDOC mRNA, set 1 | ACSL5 mRNA, set 1
TNNT1 | 0.0653 | 0.274 | 0.278 | 0.0341 | 0.167
TMEM121B | 0.0928 | 0.448 | 0.353 | 0.0385 | 0.128
TTC19 | 0.054 | 0.247 | 0.305 | 0.0202 | 0.367
